Common to all, as to assay: EMSA; QCM
A general note: A gel shift assay detects complexes by their altered migration in electrophoresis.

The target in data set [1] is T1, PZ V314A C162S,C182S,V314A (UniProt A8QW55).
T1 sequence (looked up): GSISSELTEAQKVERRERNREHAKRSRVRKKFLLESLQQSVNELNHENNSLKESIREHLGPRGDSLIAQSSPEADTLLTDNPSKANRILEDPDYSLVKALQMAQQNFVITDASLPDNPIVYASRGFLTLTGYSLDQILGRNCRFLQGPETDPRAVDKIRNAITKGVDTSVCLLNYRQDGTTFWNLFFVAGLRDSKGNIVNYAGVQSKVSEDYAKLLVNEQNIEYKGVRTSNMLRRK
The following applies: blue light; EMSA: 5% polyacrylamide gel, 25 C, dark or blue light 5 W/m2; recombinant protein; residues 113-348; label: Alexa Fluor647 (EMSA), biotin (QCM).

In data set [2] the target is T2, PZ F299V C162S,C182S,F299V (UniProt A8QW55).
T2 sequence (looked up): T1 sequence (looked up) with F187V, A202V
The following applies: EMSA: 5% polyacrylamide gel, 25 C, dark or blue light 5 W/m2, recombinant protein, residues 113-348, label: Alexa Fluor647 (EMSA), biotin (QCM).

In data set [3] the target is T3, PZ F219V C162S,C182S,F219V (UniProt A8QW55).
T3 sequence (looked up): T1 sequence (looked up) with F107V, A202V
Particulars: blue light; EMSA: 5% polyacrylamide gel, 25 C, dark or blue light 5 W/m2; recombinant protein; residues 113-348; label: Alexa Fluor647 (EMSA), biotin (QCM).

The target in data set [4] is T4, PZ V316A C162S,C182S,V316A (UniProt A8QW55).
T4 sequence (looked up): T1 sequence (looked up) with A202V, V204A
Particulars: blue light; EMSA: 5% polyacrylamide gel, 25 C, dark or blue light 5 W/m2; recombinant protein; residues 113-348; label: Alexa Fluor647 (EMSA), biotin (QCM).

Data set [5] concerns the target T5, PZ L303A C162S,C182S,L303A (UniProt A8QW55).
T5 sequence (looked up): T1 sequence (looked up) with L191A, A202V
The following applies: EMSA: 5% polyacrylamide gel, 25 C, dark or blue light 5 W/m2, recombinant protein, residues 113-348, label: Alexa Fluor647 (EMSA), biotin (QCM).

Data set [6] addresses T6, PZ L201A/L208A/L212A (triple) C162S,C182S,L201A,L208A,L212A (UniProt A8QW55).
T6 sequence (looked up): T1 sequence (looked up) with L89A, L96A, L100A, A202V
Particulars: blue light; EMSA: 5% polyacrylamide gel, 25 C, dark or blue light 5 W/m2; recombinant protein; residues 113-348; label: Alexa Fluor647 (EMSA), biotin (QCM).

Here are results for 1 sequence from article PMC8184817, “Transmission of light signals from the light-oxygen-voltage core via the hydrophobic region of the β-sheet surface in aureochrome-1” (Scientific Reports, 2021).

Positions count from the first letter of the chain named. The exact form of at least one protein or probe is not confirmed. For some assays here: A weaker result is weaker than the reference pair of the same experiment. Tags and fusion partners may be left off the protein sequences shown. At least one verdict was read from the data and is not stated in words by the source.

As to “GCTGTCTGACGTCAGACAGC (double strand) [dsApo]”, the binding result is “binds” in data set [1]; “binds more weakly” in data set [2] (blue light, high EC50); “binds” in data set [2] (dark state); “binds” in data set [3]; “binds” in data set [4]; “binds more weakly” in data set [5] (blue light, high EC50). The binding result in data set [5] (dark state) and in data set [6] was “binds” in each case.
